The results in this text go back to PubChem BioAssay AID256 (DTP/NCI, 2004).

This test relates to CD2F1 mice, L1210 leukemia ip, survival T/C. The test can be described thus: NCI In Vivo Anticancer Drug Screen. Data for tumor model L1210 Leukemia (intraperitoneal) in CD2F1 (CDF1) mice. To be noted: higher T/C = longer survival. The procedure, abridged: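 In this screen, transplantable tumors were grown in mice given either the compound or its vehicle. Results were expressed as the treated measurement relative to the control measurement.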

Setting [1] is: T/C endpoint: mean survival time, dose: 15.62 mg/kg/injection, schedule: Q01DX001 (ip), vehicle: DMSO.
Where [2] appears, read: T/C endpoint: mean survival time, dose: 62.5 mg/kg/injection, schedule: Q01DX001 (ip), vehicle: DMSO.
[3] abbreviates: T/C endpoint: mean survival time, dose: 125.0 mg/kg/injection, schedule: Q01DX001 (ip), vehicle: DMSO.
The mark [4] stands for this setting: T/C endpoint: mean survival time, dose: 250.0 mg/kg/injection, schedule: Q01DX001 (ip), vehicle: DMSO.
Setting [5] is: T/C endpoint: mean survival time, dose: 500.0 mg/kg/injection, schedule: Q01DX001 (ip), vehicle: DMSO.
Setting [6] is: T/C endpoint: mean survival time, dose: 100.0 mg/kg/injection, schedule: Q04DX003 (ip), vehicle: saline with Tween-80.
Where [7] appears, read: T/C endpoint: mean survival time, dose: 200.0 mg/kg/injection, schedule: Q04DX003 (ip), vehicle: saline with Tween-80.
Setting [8] is: T/C endpoint: mean survival time, dose: 400.0 mg/kg/injection, schedule: Q04DX003 (ip), vehicle: saline with Tween-80.

The list does not hold the whole screen: its compounds were picked by chemical class. Other doses and runs of a compound may be missing. T/C is the treated group as % of the vehicle group. Some doses have a count of surviving animals in place of a T/C: the source holds a T/C of zero for them, seemingly a mark for toxic or unscored doses. Some survivor counts are full or nearly so, which does not show that the dose was tolerated: the source hardly ever lists a survival T/C far under the control, and the zero likely stands for such cases as well. Survivors were counted at the toxicity check, usually on the fifth day, unless a day is given; later deaths do not show. Schedule codes are those of the source, taken here to give the interval after Q, in days (D) or hours (H), and the number of doses after X. Some metal complexes and salts are drawn in pieces, as in the source, so charges may not balance. Where survival is the endpoint, this PubChem deposit counts one and a half times the control or more as active, and values a quarter to a half above the control carry no call in these data; other NCI protocols may use other cut-offs. Some entries show no survivor count and are marked so; the dose need not have been tolerated. Some T/C values carry the count of animals alive at the toxicity check (mostly the fifth day); where neither a count nor a note follows, no animal had died by that day.

In the case of `NNP(=O)(OCc1ccccc1)N(CCCl)CCCl` (configuration not stated), the T/C is, setting by setting: (T/C endpoint: mean survival time, dose: 25.0 mg/kg/injection, schedule: Q01DX001 (ip), vehicle: DMSO) 101 % of control; (T/C endpoint: mean survival time, dose: 50.0 mg/kg/injection, schedule: Q01DX001 (ip), vehicle: DMSO) 94 % of control; (T/C endpoint: mean survival time, dose: 100.0 mg/kg/injection, schedule: Q01DX001 (ip), vehicle: DMSO) 91 % of control; (T/C endpoint: mean survival time, dose: 200.0 mg/kg/injection, schedule: Q01DX001 (ip), vehicle: DMSO) 95 % of control; (T/C endpoint: mean survival time, dose: 400.0 mg/kg/injection, schedule: Q01DX001 (ip), vehicle: DMSO) 97 % of control.

Consider `CCCCOP(OCCCC)OCCCC`, for which the T/C is, setting by setting: (T/C endpoint: mean survival time, dose: 100.0 mg/kg/injection, schedule: Q01DX009 (ip), vehicle: saline with Tween-80) 97 % of control; (T/C endpoint: mean survival time, dose: 200.0 mg/kg/injection, schedule: Q01DX009 (ip), vehicle: saline with Tween-80) 94 % of control. Also, the survivor count (T/C endpoint: mean survival time, dose: 400.0 mg/kg/injection, schedule: Q01DX009 (ip), vehicle: saline with Tween-80) is recorded as 4 of 6.

On to `O=P1(N(CCCl)CCCl)NCC(CCO)O1` (configuration not stated), for which the T/C under setting [1] was 95 % of control; the T/C (T/C endpoint: mean survival time, dose: 31.25 mg/kg/injection, schedule: Q01DX001 (ip), vehicle: DMSO) was 103 % of control; the T/C under setting [2] is 97 % of control; the T/C under setting [3] was 104 % of control; the T/C under setting [4] is 101 % of control; the T/C under setting [5] is 117 % of control.

On to `Cc1cccc(Nc2c([N+](=O)[O-])cc([N+](=O)[O-])cc2[N+](=O)[O-])c1`, for which the T/C was 97 % of control under setting [6], 100 % of control under setting [7] and 91 % of control under setting [8].

In the case of `O=[N+]([O-])C/C(=N\Nc1ccc([N+](=O)[O-])cc1[N+](=O)[O-])c1ccccc1`, the T/C runs as follows: (T/C endpoint: mean survival time, dose: 100.0 mg/kg/injection, schedule: Q04DX003 (ip), vehicle: saline sonified) 97 % of control; (T/C endpoint: mean survival time, dose: 200.0 mg/kg/injection, schedule: Q04DX003 (ip), vehicle: saline sonified) 106 % of control; (T/C endpoint: mean survival time, dose: 400.0 mg/kg/injection, schedule: Q04DX003 (ip), vehicle: saline sonified) 96 % of control.

On to `C1CCC(C2CCCC[N-]2)[N-]C1.[N-]=[N+]=N.[N-]=[N+]=N.[Pd]` (configuration not stated), for which the T/C is 103 % of control (T/C endpoint: mean survival time, dose: 3.13 mg/kg/injection, schedule: Q04DX003 (ip), vehicle: distilled water + Tween-80); 103 % of control (T/C endpoint: mean survival time, dose: 6.25 mg/kg/injection, schedule: Q04DX003 (ip), vehicle: distilled water + Tween-80); 96 % of control (T/C endpoint: mean survival time, dose: 12.5 mg/kg/injection, schedule: Q04DX003 (ip), vehicle: distilled water + Tween-80); 93 % of control (T/C endpoint: mean survival time, dose: 25.0 mg/kg/injection, schedule: Q04DX003 (ip), vehicle: distilled water + Tween-80); 96 % of control (T/C endpoint: mean survival time, dose: 50.0 mg/kg/injection, schedule: Q04DX003 (ip), vehicle: distilled water + Tween-80); 96 % of control (T/C endpoint: mean survival time, dose: 100.0 mg/kg/injection, schedule: Q04DX003 (ip), vehicle: distilled water + Tween-80). The T/C (T/C endpoint: mean survival time, dose: 200.0 mg/kg/injection, schedule: Q04DX003 (ip), vehicle: distilled water + Tween-80) is 96 % of control.

As to `CC(CO)NC1CCCC1.O=[N+]([O-])c1cc([N+](=O)[O-])c(O)c([N+](=O)[O-])c1`, the T/C by setting is: (T/C endpoint: mean survival time, dose: 75.0 mg/kg/injection, schedule: Q01DX001 (ip), vehicle: other) 95 % of control; (T/C endpoint: mean survival time, dose: 150.0 mg/kg/injection, schedule: Q01DX001 (ip), vehicle: other) 93 % of control; (T/C endpoint: mean survival time, dose: 300.0 mg/kg/injection, schedule: Q01DX001 (ip), vehicle: other) 97 % of control.

Regarding `C1CN1.NC(=O)CC(N)C(=O)O` (configuration not stated), the T/C reads like this: (T/C endpoint: mean survival time, dose: 100.0 mg/kg/injection, schedule: Q04DX003 (ip), vehicle: saline) 112 % of control [5 of 6 alive]; (T/C endpoint: mean survival time, dose: 200.0 mg/kg/injection, schedule: Q04DX003 (ip), vehicle: saline) 112 % of control. The survivor count (T/C endpoint: mean survival time, dose: 400.0 mg/kg/injection, schedule: Q04DX003 (ip), vehicle: saline) is 0 of 6.

As to `O=C1NP(=O)(Sc2ccccc2)C=CN1C1OC(CO)C(O)C1O` (configuration not stated), the T/C reads like this: (T/C endpoint: median survival time, dose: 15.5 mg/kg/injection, schedule: Q01DX005 (ip), vehicle: saline) 110 % of control; (T/C endpoint: median survival time, dose: 31.0 mg/kg/injection, schedule: Q01DX005 (ip), vehicle: saline) 103 % of control; (T/C endpoint: median survival time, dose: 62.0 mg/kg/injection, schedule: Q01DX005 (ip), vehicle: saline) 103 % of control; (T/C endpoint: median survival time, dose: 124.0 mg/kg/injection, schedule: Q01DX005 (ip), vehicle: saline) 98 % of control.

`CCN(CC)CCOC(=O)C(O)(c1cccc(C)c1)c1csc2ccccc12` (configuration not stated): the T/C by setting is: (T/C endpoint: mean survival time, dose: 75.0 mg/kg/injection, schedule: Q01DX001 (ip), vehicle: saline) 101 % of control; (T/C endpoint: mean survival time, dose: 150.0 mg/kg/injection, schedule: Q01DX001 (ip), vehicle: saline) 97 % of control.

As to `O=[N+]([O-])c1cc([N+](=O)[O-])c(O)c([N+](=O)[O-])c1.c1ccc(C2=c3ccc4c5c(ccc(c35)=N2)=C(c2ccccc2)N=4)cc1`, under setting [6], the T/C was 100 % of control [survivor count not shown].

With `O=[N+]([O-])c1cc(Cl)cc([N+](=O)[O-])c1O`, the T/C (T/C endpoint: mean survival time, dose: 25.0 mg/kg/injection, schedule: Q04DX003 (ip), vehicle: saline with Tween-80) is 97 % of control; the T/C (T/C endpoint: mean survival time, dose: 50.0 mg/kg/injection, schedule: Q04DX003 (ip), vehicle: saline with Tween-80) is 97 % of control; the T/C under setting [6] was 94 % of control. In addition, the survivor count under setting [6] is listed as 1 of 3, the survivor count under setting [7] is reported as 1 of 3 and the survivor count under setting [8] was 0 of 3.

With `CC(CO)COP(N)(=O)N(CCCl)CCCl` (configuration not stated), the T/C under setting [1] is 98 % of control; the T/C (T/C endpoint: mean survival time, dose: 31.3 mg/kg/injection, schedule: Q01DX001 (ip), vehicle: DMSO) is 101 % of control; the T/C under setting [2] is 108 % of control; the T/C under setting [3] is 104 % of control; the T/C under setting [4] is 97 % of control; the T/C under setting [5] is 97 % of control.

For the compound `Nc1ccc(CCCCc2cccc(S(=O)(=O)F)c2)c(Cl)c1.O=[N+]([O-])c1cc([N+](=O)[O-])c(O)c([N+](=O)[O-])c1`, the T/C (T/C endpoint: mean survival time, dose: 25.0 mg/kg/injection, schedule: Q01DX009 (ip), vehicle: acetone) was 100 % of control; the T/C (T/C endpoint: mean survival time, dose: 50.0 mg/kg/injection, schedule: Q01DX009 (ip), vehicle: acetone) is 93 % of control; the T/C (T/C endpoint: mean survival time, dose: 100.0 mg/kg/injection, schedule: Q01DX009 (ip), vehicle: acetone) is 100 % of control; the T/C under setting [6] is 97 % of control. In addition, the survivor count under setting [7] is listed as 3 of 6 and the survivor count under setting [8] was 0 of 6.

As for `[C-]#N.[C-]#N.[C-]#N.[C-]#N.[Ni].c1ccc([I+]c2ccccc2)cc1`, the survivor count is recorded as 2 of 6 (T/C endpoint: mean survival time, dose: 100.0 mg/kg/injection, schedule: Q01DX001 (ip), vehicle: saline); 0 of 6 (T/C endpoint: mean survival time, dose: 200.0 mg/kg/injection, schedule: Q01DX001 (ip), vehicle: saline); 0 of 6 (T/C endpoint: mean survival time, dose: 400.0 mg/kg/injection, schedule: Q01DX001 (ip), vehicle: saline).

Turning to `CC(C)(C)C1COP(C)(=O)OC1` (configuration not stated), the T/C was 100 % of control [survivor count not shown] (T/C endpoint: mean survival time, dose: 3.13 mg/kg/injection, schedule: Q04DX002 (ip), vehicle: saline with Tween-80); 103 % of control [survivor count not shown] (T/C endpoint: mean survival time, dose: 6.25 mg/kg/injection, schedule: Q04DX002 (ip), vehicle: saline with Tween-80); 96 % of control [survivor count not shown] (T/C endpoint: mean survival time, dose: 12.5 mg/kg/injection, schedule: Q04DX002 (ip), vehicle: saline with Tween-80).

In the case of `OC(Sc1ccc(Cl)cc1)C(Cl)(Cl)Cl` (configuration not stated), the T/C by setting is: under setting [6], 97 % of control; under setting [7], 101 % of control; under setting [8], 92 % of control.
